Results are percentages, as filed. How 0% and 100% were set is not recorded. Most values in the screen are low, and negative values occur. The compounds are a random part of those screened. A dash means the value is not listed here; it may have been measured.

Amino acid sequences for entries named in this document (tags omitted).
UniProt E9BF75, entry or part of it: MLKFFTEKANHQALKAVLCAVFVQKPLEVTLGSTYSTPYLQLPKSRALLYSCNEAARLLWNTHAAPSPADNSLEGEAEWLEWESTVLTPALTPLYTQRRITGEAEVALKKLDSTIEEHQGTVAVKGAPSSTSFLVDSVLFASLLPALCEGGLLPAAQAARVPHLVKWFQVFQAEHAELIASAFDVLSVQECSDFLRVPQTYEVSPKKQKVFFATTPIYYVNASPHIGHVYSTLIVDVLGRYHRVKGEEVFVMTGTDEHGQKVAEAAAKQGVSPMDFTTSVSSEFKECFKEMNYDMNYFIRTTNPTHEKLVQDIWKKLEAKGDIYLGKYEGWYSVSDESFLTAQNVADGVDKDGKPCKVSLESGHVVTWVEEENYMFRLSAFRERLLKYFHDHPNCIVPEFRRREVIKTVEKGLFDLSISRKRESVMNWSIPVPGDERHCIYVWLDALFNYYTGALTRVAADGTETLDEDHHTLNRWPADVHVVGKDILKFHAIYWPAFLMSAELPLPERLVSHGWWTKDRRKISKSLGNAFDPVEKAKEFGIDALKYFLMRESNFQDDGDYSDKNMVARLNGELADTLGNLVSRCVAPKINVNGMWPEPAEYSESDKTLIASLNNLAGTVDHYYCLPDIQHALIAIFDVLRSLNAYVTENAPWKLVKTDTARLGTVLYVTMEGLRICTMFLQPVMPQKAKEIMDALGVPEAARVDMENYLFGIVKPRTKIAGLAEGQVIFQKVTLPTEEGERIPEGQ

Mtb heat-shock: 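Assay on Mycobacterium tuberculosis, filed only as a heat shock assay from Cornell; the read-out is not stated. The concentration is filed as 10 mM, unlikely as a test dose, so the dose is not known. Direction is inferred from retests: higher values go with stronger inhibition. About 69,000 compounds were tested under these conditions; 1.4% (about 930) showed 50% or more at least once.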
Mtb growth Cornell: 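Whole-cell assay for inhibitors of Mycobacterium tuberculosis growth, labelled Cornell in the record; the read-out is not stated. The concentration is filed as 10 mM, unlikely as a test dose, so the dose is not known. The record gives no direction; compounds strong in two other growth screens of this library score well above the rest, so higher reads as stronger inhibition. Size under these conditions: about 53,000 compounds, about 900 of them at 50% or above in at least one test.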
LdMetRS: 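Primary screen of methionyl-tRNA synthetase; the read-out is not stated. Target: Methionyl-tRNA synthetase (putative), Leishmania donovani (UniProt E9BF75). The test concentration is not given. Values are per cent inhibition. About 68,000 compounds were tested under these conditions; 0.035% (about 24) showed 50% or more at least once.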

{"structure": "Cc1nc(C)n(CC2CCCN2c2ncnc3sc(C)c(C)c23)n1", "stereo": "stereo not given", "Mtb heat-shock": 4.18, "Mtb growth Cornell": 5.466, "LdMetRS": 13.97}
{"structure": "CN(C)CC(=O)N1CCC2(CCc3cc(-c4cccnc4)ccc32)CC1", "LdMetRS": 17.79}
{"structure": "C=Cc1cccc(CN2C[C@H]3CC[C@@H]2CN(Cc2c(C)noc2C)C3)c1", "LdMetRS": 6.452}
{"structure": "Cn1cc(CN2CC[C@@H](O)[C@@H]2Cc2ccccc2)cn1", "Mtb heat-shock": 8.801, "Mtb growth Cornell": 22.9, "LdMetRS": 16.92}
{"structure": "COCC1CN(Cc2c(C)noc2C)Cc2ccnn2C1.O=C(O)C(F)(F)F.O=C(O)C(F)(F)F", "stereo": "stereo not given", "Mtb heat-shock": 0.02483, "Mtb growth Cornell": 8.489}
{"structure": "CNc1cncc(C2CCCN2Cc2ccccc2OCC(=O)O)n1", "stereo": "stereo not given", "Mtb heat-shock": 2.446, "Mtb growth Cornell": 1.188, "LdMetRS": 18.15}
{"structure": "Cc1cccc(OC2CN(C(=O)C3CC(=O)N(C(C)(C)C)C3)C2)c1", "stereo": "stereo not given", "Mtb heat-shock": -32.74, "LdMetRS": 8.125}
{"structure": "Cc1ccccc1CCCN1C(=O)CC2(CCSC2)C1=O", "stereo": "stereo not given", "Mtb heat-shock": -9.339, "Mtb growth Cornell": 22.66, "LdMetRS": 6.069}
{"structure": "C1CN(c2nc(C3CC3)ns2)CCS1", "Mtb heat-shock": -21.28, "Mtb growth Cornell": 3.4, "LdMetRS": 15.05}
{"structure": "CC1CCCN(Cc2ccnc(-c3cccnc3)n2)C1.O=C(O)CC(O)(CC(=O)O)C(=O)O", "stereo": "stereo not given", "Mtb heat-shock": -10.23, "Mtb growth Cornell": -90.85}
{"structure": "CC(C)n1nccc1NC(=O)CN1CCc2sccc2C1", "Mtb heat-shock": -0.741, "Mtb growth Cornell": 2.695, "LdMetRS": 12.11}
{"structure": "Cc1ccc(C(N)=O)cc1NCCOc1cccc(C#N)c1", "Mtb heat-shock": -11.23, "LdMetRS": 17.58}
{"structure": "O=C(CNC(=O)Nc1c(F)cc(F)cc1-c1ccccc1)NC1CC1", "Mtb heat-shock": -0.4536, "Mtb growth Cornell": -22.75, "LdMetRS": 14.91}
{"structure": "O=C(O)C(F)(F)F.O=C(O)C(F)(F)F.O=C(c1cccnc1)N1CC[C@H](OCC2CC2)[C@@H]1Cc1cccnc1", "Mtb heat-shock": 11.28, "Mtb growth Cornell": 22.86}
{"structure": "COCCN(CCOC)C(=O)c1cc(F)cc2[nH]cnc12", "Mtb heat-shock": 9.18, "Mtb growth Cornell": -6.74, "LdMetRS": 11.8}
{"structure": "COc1cccc(Cl)c1C(C(=O)O)N(C)Cc1c(C)n[nH]c1C", "stereo": "stereo not given", "Mtb heat-shock": -14.66, "Mtb growth Cornell": -38.95, "LdMetRS": 18.77}
{"structure": "CCN(Cc1cnn(CC)c1)Cc1c(Cl)cncc1Cl", "Mtb heat-shock": -0.9824, "LdMetRS": 13.17}
{"structure": "Clc1cccc(C(CNCc2cccnc2)N2CCOCC2)c1", "stereo": "stereo not given", "Mtb heat-shock": -18.61, "Mtb growth Cornell": -42.2, "LdMetRS": 3.655}
{"structure": "O=C(N1CCCC1)N1CCOCC2(CCN(Cc3cccs3)C2)C1", "stereo": "stereo not given", "LdMetRS": 5.753}
{"structure": "CC(=O)N(Cc1ncc(C)o1)C1CCN(Cc2ccncc2Cl)C1", "stereo": "stereo not given", "Mtb heat-shock": 12.64, "LdMetRS": 14.58}
{"structure": "Cc1ccc(C)c(OCC(O)Cn2ncc3cnn(C)c(=O)c32)c1", "stereo": "stereo not given", "Mtb heat-shock": -1.979, "Mtb growth Cornell": 5.707, "LdMetRS": 10.89}
{"structure": "Cc1cc(C(=O)NCc2ccnc(N3CCOCC3)c2)c(C)s1", "Mtb heat-shock": -2.709, "LdMetRS": 21.58}
{"structure": "[H][C@@]12C[C@@H](c3nnc(C4CC4)o3)O[C@]1([H])CN(C(=O)c1ccc(C)s1)C2", "Mtb heat-shock": 5.853, "Mtb growth Cornell": 8.489}
{"structure": "CN(C)CC(=O)N1CCOC2(CCCN(c3ncccc3F)C2)C1", "stereo": "stereo not given", "LdMetRS": 20}
{"structure": "Cc1cc(C)c2c(N(C)CC3CCN(CC(C)C)C3)ncnc2n1", "stereo": "stereo not given", "Mtb heat-shock": 0.6682, "Mtb growth Cornell": 9.196, "LdMetRS": 16.45}
{"structure": "CC(C(=O)NCCOc1ccc(F)cc1)n1cncn1", "stereo": "stereo not given", "Mtb heat-shock": -13.14, "LdMetRS": 18.87}
{"structure": "Cc1cc(C(F)(F)F)c2c(=O)n(Cc3ccon3)n(C)c2n1", "Mtb heat-shock": 8.662, "Mtb growth Cornell": 2.97, "LdMetRS": 8.877}
{"structure": "O=C(C1CCOCC1)N1CC[C@@H]2[C@H]1CCC(=O)N2c1ccccc1", "LdMetRS": 8.759}
{"structure": "Cc1nc(CCNC(=O)NCc2cccc(N(C)C)n2)cs1", "Mtb heat-shock": -5.433, "Mtb growth Cornell": -57.29, "LdMetRS": 12.54}

The first 3 entries again:

| structure | Mtb heat-shock | Mtb growth Cornell | LdMetRS |
|---|---|---|---|
| `Cc1nc(C)n(CC2CCCN2c2ncnc3sc(C)c(C)c23)n1` (stereo not given) | 4.18% | 5.466% | 13.97% |
| `CN(C)CC(=O)N1CCC2(CCc3cc(-c4cccnc4)ccc32)CC1` | - | - | 17.79% |
| `C=Cc1cccc(CN2C[C@H]3CC[C@@H]2CN(Cc2c(C)noc2C)C3)c1` | - | - | 6.452% |

Measurements from “University of Dundee, Small-Polar-MMV Screening Library” (2021), ChEMBL document CHEMBL3988442.